# Results of single-concentration screens

Protein sequences, listed by entry. Tags and fused reporters are not part of them. Residues count along the entry.
UniProt I6X8D2, whole entry: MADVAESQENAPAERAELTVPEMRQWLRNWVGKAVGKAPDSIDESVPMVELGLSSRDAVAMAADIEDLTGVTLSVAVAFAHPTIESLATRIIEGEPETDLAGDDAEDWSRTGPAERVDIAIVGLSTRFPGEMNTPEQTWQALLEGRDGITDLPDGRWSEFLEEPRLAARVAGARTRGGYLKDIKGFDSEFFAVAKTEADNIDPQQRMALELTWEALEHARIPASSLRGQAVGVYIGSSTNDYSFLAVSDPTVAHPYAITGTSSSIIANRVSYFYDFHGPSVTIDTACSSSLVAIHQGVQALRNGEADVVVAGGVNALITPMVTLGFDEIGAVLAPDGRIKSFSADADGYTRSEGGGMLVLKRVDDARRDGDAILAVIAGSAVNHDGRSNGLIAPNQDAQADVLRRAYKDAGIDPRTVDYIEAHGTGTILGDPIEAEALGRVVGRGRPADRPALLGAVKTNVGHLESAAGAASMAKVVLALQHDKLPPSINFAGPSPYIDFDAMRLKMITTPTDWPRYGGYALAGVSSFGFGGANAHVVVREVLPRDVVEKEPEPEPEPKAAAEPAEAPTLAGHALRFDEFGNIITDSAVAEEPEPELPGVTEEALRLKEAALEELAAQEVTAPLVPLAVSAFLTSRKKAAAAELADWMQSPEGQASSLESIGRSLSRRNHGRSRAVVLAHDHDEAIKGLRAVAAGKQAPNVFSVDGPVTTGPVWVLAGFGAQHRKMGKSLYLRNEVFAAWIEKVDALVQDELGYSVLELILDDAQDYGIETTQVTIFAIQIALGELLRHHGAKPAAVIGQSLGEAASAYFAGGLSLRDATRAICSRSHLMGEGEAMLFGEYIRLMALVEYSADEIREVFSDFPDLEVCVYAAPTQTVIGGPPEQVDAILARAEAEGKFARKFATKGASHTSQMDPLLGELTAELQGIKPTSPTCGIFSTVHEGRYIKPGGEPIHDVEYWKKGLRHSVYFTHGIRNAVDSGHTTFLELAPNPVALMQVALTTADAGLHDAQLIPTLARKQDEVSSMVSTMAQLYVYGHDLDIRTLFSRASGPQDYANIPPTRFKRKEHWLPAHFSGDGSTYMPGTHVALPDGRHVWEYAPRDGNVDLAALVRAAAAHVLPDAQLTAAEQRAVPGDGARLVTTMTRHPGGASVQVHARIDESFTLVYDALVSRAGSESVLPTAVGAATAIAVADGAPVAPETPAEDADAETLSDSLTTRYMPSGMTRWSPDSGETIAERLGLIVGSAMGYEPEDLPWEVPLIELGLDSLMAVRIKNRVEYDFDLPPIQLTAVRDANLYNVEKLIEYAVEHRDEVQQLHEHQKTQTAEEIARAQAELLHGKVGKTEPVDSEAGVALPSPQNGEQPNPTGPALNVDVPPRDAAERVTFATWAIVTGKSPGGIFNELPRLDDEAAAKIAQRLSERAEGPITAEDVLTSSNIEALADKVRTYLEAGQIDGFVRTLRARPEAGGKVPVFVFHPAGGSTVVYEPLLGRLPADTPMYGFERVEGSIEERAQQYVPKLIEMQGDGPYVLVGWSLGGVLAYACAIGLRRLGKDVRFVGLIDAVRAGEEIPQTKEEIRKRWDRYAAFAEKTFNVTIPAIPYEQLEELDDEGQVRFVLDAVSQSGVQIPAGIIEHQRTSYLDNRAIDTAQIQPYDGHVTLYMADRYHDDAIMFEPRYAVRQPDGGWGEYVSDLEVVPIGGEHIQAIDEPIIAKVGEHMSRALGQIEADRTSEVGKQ
UniProt Q4DA54, 1-478: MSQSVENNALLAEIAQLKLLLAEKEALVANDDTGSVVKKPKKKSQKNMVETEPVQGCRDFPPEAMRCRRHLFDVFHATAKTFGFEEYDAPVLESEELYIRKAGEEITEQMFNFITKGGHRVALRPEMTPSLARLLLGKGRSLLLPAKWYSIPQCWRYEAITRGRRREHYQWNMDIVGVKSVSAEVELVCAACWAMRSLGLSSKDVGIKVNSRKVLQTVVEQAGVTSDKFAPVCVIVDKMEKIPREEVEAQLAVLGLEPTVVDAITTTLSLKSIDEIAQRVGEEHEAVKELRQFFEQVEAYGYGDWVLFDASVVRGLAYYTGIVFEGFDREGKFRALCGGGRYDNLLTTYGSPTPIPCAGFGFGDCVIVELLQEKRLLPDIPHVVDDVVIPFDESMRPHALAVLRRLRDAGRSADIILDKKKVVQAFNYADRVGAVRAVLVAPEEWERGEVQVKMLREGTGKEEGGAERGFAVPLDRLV
UniProt P9WPC5, whole entry: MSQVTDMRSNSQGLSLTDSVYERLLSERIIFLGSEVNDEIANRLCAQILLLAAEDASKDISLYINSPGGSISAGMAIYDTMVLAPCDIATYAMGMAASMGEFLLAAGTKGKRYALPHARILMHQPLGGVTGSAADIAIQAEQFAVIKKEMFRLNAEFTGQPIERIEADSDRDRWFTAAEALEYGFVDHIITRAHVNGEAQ
UniProt P9WPC3, whole entry partner: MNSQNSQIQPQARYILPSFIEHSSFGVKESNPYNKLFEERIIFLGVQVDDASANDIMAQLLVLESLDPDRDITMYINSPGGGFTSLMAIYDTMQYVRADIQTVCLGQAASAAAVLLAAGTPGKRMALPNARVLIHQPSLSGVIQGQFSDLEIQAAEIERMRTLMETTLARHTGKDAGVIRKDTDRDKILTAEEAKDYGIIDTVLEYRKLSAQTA
UniProt A4I591, 1-473: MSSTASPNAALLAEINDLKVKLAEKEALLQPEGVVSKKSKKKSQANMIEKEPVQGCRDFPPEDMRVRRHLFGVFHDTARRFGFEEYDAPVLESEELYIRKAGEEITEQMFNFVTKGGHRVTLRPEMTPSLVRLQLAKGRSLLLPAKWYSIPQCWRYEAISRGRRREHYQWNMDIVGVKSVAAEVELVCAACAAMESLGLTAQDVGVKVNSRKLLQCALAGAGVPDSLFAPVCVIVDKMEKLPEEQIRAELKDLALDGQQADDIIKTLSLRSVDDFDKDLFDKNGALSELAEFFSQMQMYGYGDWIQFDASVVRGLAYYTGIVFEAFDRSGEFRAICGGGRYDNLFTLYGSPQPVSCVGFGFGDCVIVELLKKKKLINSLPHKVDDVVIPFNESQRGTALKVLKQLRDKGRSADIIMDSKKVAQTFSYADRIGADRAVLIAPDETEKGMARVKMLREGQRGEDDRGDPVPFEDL

Measurements from “University of Dundee, Small-Polar-MMV Screening Library” (2021), ChEMBL document CHEMBL3988442.

Pks13 thioesterase: 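Polyketide synthase Pks13, Mycobacterium tuberculosis (UniProt I6X8D2). Enzyme assay of the thioesterase domain of polyketide synthase 13; the read-out is not stated. Tested at 30 µM. The record gives no direction; the compounds picked for IC50 retests had high values, so higher reads as stronger inhibition. About 67,000 compounds were tested under these conditions; 0.46% (about 300) showed 50% or more at least once.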
TcHisRS: 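Enzyme assay of histidyl-tRNA synthetase; the read-out is not stated. Target: Histidine-tRNA ligase, Trypanosoma cruzi CL Brener (UniProt Q4DA54). Compounds at 30 µM. Higher reads as stronger inhibition (inferred: compounds with an IC50 in retests scored well above the rest). Size under these conditions: about 69,000 compounds, about 31 of them at 50% or above in at least one test.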
ClpP1P2: 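Protease assay of ClpP1P2, read by the AMC dye that it sets free. Target: ClpP1P2, Mycobacterium tuberculosis (UniProt P9WPC5 and UniProt P9WPC3). Compounds at 50 µM. Higher reads as stronger inhibition, judged from the few compounds that gave an IC50. Most other retested compounds had strongly negative values. Of about 69,000 compounds tested this way, about 10 (0.015%) reached 50% or more in at least one test.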
Leishmania in macrophages: 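Cell assay of Leishmania donovani living inside macrophages; the read-out is not stated. Concentration: 30 µM. Higher reads as stronger inhibition (inferred: compounds with an IC50 in retests scored well above the rest). About 69,000 compounds were tested under these conditions; 1.5% (about 1,000) showed 50% or more at least once.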
LiHisRS: 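Enzyme assay of histidyl-tRNA synthetase; the read-out is not stated. Target: Histidine-tRNA ligase, Leishmania infantum (UniProt A4I591). Concentration: 30 µM. Higher reads as stronger inhibition (inferred: compounds with an IC50 in retests scored well above the rest). The assay is labelled LdHisRS but filed under L. infantum. Size under these conditions: about 69,000 compounds, about 410 of them at 50% or above in at least one test.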

Each number is a percent effect as filed.
The record does not define 0% and 100%; most values in the screen are far below 50% and negative numbers occur (in some assays of this library far below -100).
Compounds were drawn at random from those tested, without regard to their results.
Two or more numbers in one place are separate tests of the same structure; such repeats can differ widely.
A dash means the value is not listed here; it may have been measured.

compound | Pks13 thioesterase | TcHisRS | ClpP1P2 | Leishmania in macrophages | LiHisRS
COc1cc2c(nn1)CCN(Cc1nnc(Cc3ccccc3)o1)C2 | 5.193% | 13.25% | -2.146% | 1.829% | 12%
CN(C)C(=O)c1cnn2c1OCCC2 | -7.328% | 5.528% | 2.452% | 2.22% | 13.48%
CN(CCc1ccncc1)Cc1nccn1Cc1ccccc1 | -12.53% | 1.064% | -11.36% | 5.979% | 28.12%
O=C(Cc1cc(-c2ccc3c(c2)OCCO3)on1)NCc1ccccn1 | -1.092% | 5.556% | 16.35% | 28.23% | 9.402%
Cc1ccc(S(=O)(=O)n2ccc(C(=O)NCC(F)(F)F)c2)cc1 | 14.18% | 1.093% | -12.35% | -116.4% | 21.92%
Cc1ccccc1-c1cc(CC2(C(=O)O)CCOCC2)on1 | 10.36% | -4.255% | 1.178% | -1.719% | 5.208%
CCn1nc(C)cc1C(=O)N1CCOc2ccc(OC)cc21 | -13.54% | 6.349% | 3.025% | -19.21% | 10.96%
[H][C@@]12OCCN(C(=O)C3CCOCC3)[C@@]1([H])CC[C@H]2OCC1CC1 | - | - | - | 16.74% | -
COC1CCN(C(=O)CC2CCCC2)CC(=O)N(C)c2ccccc21 (stereo not shown) | -0.9634% | 6.742% | 2.922% | -11.34% | 12.24%
Cc1nc2cc(O)nn2c(C)c1CCC(=O)N(C)Cc1cscn1 | 1.166% | 2.174% | -1.268% | 5.829% | 45.71%
Cc1nn(C)cc1-c1cncn1CCc1ccc2c(c1)OCCO2.Cl | - | - | - | 29.59% | -
CCc1nc(CN2CCCC(NCc3ccc(C(N)=O)cc3)C2)no1 (stereo not shown) | -29.22% | 3.759% | 0.6356% | 9.811% | -19.1%
CCN(Cc1cscn1)CC1(C)Cc2c(N)nc(N)nc2O1 (stereo not shown) | -35.95% | 5.303% | 17.57% | 27% | 13.04%
CN1CCc2c(C#N)c(NCC3CCCO3)n3cnnc3c2C1.Cl (stereo not shown) | - | - | - | 18.36% & 16.47% | -
[H][C@@]12CN(C(=O)C3CCOCC3)C[C@@]1([H])N(CC(C)C)C(=O)CO2 | - | - | - | 6.701% | -
O=C(c1ccccc1)N1CCC2(CC1)CNc1c(F)cccc12 | 18.54% | 12.22% | -2.15% | - | 26.42%
OCCCN1CCCC1c1nc(Cc2ccc(F)cc2)no1 (stereo not shown) | 11.82% | 5.419% | -4.657% | 3.958% | 6.494%
CC(=O)c1cccc(NC(=O)C2CN(S(=O)(=O)C3CC3)C2)c1 | -29.41% | 2.062% | 4.294% | 19.02% & 4.891% | 17.39%
CC(C)(C)C(=O)NCc1nccn1CCc1ccccc1 | -24.91% | 3.509% | 7.406% | 3.925% | 10.71%
CCn1cc(-c2c(C)c(C3CCOC(C)(C)C3)nc(N)c2C#N)cn1 (stereo not shown) | 1.936% | 10.1% | 7.159% | 20.42% | 5.319%
COCCN1CC(C(=O)NCc2ccc(C)s2)CC1=O (stereo not shown) | -10.07% | 4.762% | 1.291% | -3.615% | 8.219%
O=C(C1CCCCC1)N1C[C@@H]2CCNC[C@@H]21 | -41.47% | 4.854% | -1.937% | - | 19.42%
Cc1cc(C)n(CC2CCCN2CC(=O)Nc2cc(C(C)C)no2)n1 (stereo not shown) | -17.13% | -0.578% | 7.746% | -18.6% | 4.386%
O=C(Nc1ccccc1)C1CN(Cc2ccsc2)CC12CCOCC2 (stereo not shown) | -47.68% | 3.96% | 0.08009% | - | 28.77%
O=C(O)C(F)(F)F.[H][C@@]12OCCN(C(=O)c3cc(C)[nH]c3C)[C@@]1([H])CC[C@H]2OCCN(C)C | - | - | - | -11.03% | -
Cc1ncsc1C(=O)N[C@@H](Cc1ccccc1)C(N)=O | 4.274% | 0.6061% | -7.167% | 23.86% | -4.444%
Cc1ncnc(NCc2cc3n(n2)CCCN(S(C)(=O)=O)C3)c1C | - | 1.653% | 2.551% | 26.23% | 15.24%
CN(Cc1nc(-c2cccnc2)no1)C(=O)c1c2c(nn1C)CCCC2 | -20.35% | 7.792% | 2.934% | -9.375% | 8.333%
Cc1c(I)cccc1C(=O)NCC1(CO)CC1 | -14.24% | -1.667% | -12.18% | 4.812% | 17.31%
CC(C)CN1CCC2(CC1)C(=O)Nc1ccc(C(=O)NC(C)C)cc12 | -11.08% | 1.869% | -13.35% | - | 5.556%
Cc1cncc(C(=O)N2CCOc3nc(C)ccc32)c1 | 0.6184% | 2.469% | 0.2825% | 21.51% | 12.9%
CC(C)Oc1ccc(-c2csc(Cn3ccc(=O)[nH]c3=O)n2)cc1 | -43.24% | 5.882% | -0.8694% | 13.72% | 15.97%
[H][C@@]12C[C@H](c3nnc(C)o3)O[C@@]1([H])CCN(C(=O)Cc1ccc(F)cc1)C2 | - | - | - | 36.99% | -
CNC(=O)c1cccnc1N1CCN(Cc2ccccc2)C(CCO)C1 (stereo not shown) | -28.3% | 6.329% | -3.622% | 16.84% | 16.67%
N#Cc1ccc(N2CCC(c3nccn3Cc3cscn3)CC2)nc1 | -29.34% | 7.821% | -0.3256% | 0.3998% | 11.46%
O=C(O)C(F)(F)F.[H][C@]12CCN(S(=O)(=O)c3ccccc3)CC[C@@]1([H])S(=O)(=O)CCN2CC(C)C | - | - | - | -4.443% & -2.092% | -
CCc1c(C)n(CC(C)=O)c2nc3ccccc3n2c1=O | -11.31% | 3.093% | 2.372% | -3.52% | 7.692%
CCOc1cccc(CCNC(=O)Cc2cccc(O)c2)n1 | -10.96% | 4.902% | -34.09% | 38.27% | 14.4%
O=C(NCc1ccc(CN2CCCC2)cc1)NCc1ccon1 | -19.91% | 8.929% | -7.809% | -11.36% | 24.73%
CCc1nnc2n1CCN(C(=O)c1nc(-c3ccco3)sc1C)C2 | 17.09% | 2.286% | -14.74% | 1.353% | 13.56%
CN(Cc1ccco1)C(=O)Nc1cccnc1N1CCCC1 | -4.959% | 7.514% | -1.376% | 33.04% | 16.67%
O=C(NCc1cc[nH]n1)NCC(O)c1ccc(F)cc1 (stereo not shown) | -3.41% | 10.37% | -27.59% | -11.19% | 3.571%
CN(C)Cc1cc(C2CCCCN2S(=O)(=O)Cc2ccccc2)nn1C.Cl (stereo not shown) | - | - | - | -6.731% | -
[H][C@@]12CCN(c3cccc(C)n3)C[C@]1([H])[C@@H](CN(C)Cc1ccco1)OC2 | - | - | - | 31.93% | -
O=C1CNc2ncnc(N3CCN(Cc4ccccc4)CC3)c2N1 | -2.508% | 0.4464% | -34.81% | -8.374% | 23.46%
CC(Cn1ccnc1)NC(=O)N1CCN(Cc2cccs2)CC1 (stereo not shown) | -36.3% | 2.286% | -6.158% | 5.787% | 11.54%
CCc1ccc(CNC(=O)CCNS(=O)(=O)c2cn(C)c(C)n2)s1 | 8.836% | 6.897% | -5.375% | -13.38% | 4.386%
Cc1sc(NC(=O)CN(C)CCOc2cccc(F)c2)c(C)c1C | -46.48% | 8.247% | 2.424% | -1.009% | 21.84%
CN(Cc1ccsc1)C(=O)c1cccc(S(=O)(=O)NC(C)(C)C)c1 | -23.63% | -1.527% | 22.06% | 28.95% | 16.44%
O=C(CC1CC1)NCc1cn2c(n1)CN(Cc1cccc(F)c1)CC2 | -20.63% | 2.956% | -5.428% | - | -11.76%
O=C1CC[C@]2(CC[C@@H](NC(=O)NCc3ccccc3)CC2)N1 | -38.26% | 4.854% | 9.211% | -10.38% | 5.769%
COCCn1ccc2cc(C(=O)N3CCN(S(C)(=O)=O)CC3)ccc21 | -7.056% | 7% | -1.421% | -0.8765% | 15.22%
c1ccc(C[C@H]2CN(Cc3nccs3)CC[C@H]2OCC2CC2)cc1 | -26.31% | 9.29% | -8.328% | 30.39% | 15.33%
COC(=O)CNC(=O)c1ccn(-c2ccc(Cl)c(Cl)c2)n1 | -6.296% | 2.679% | -13.55% | -4.163% | 19.47%
CSCc1nc(C(C)(C)NC(=O)OC(C)(C)C)no1 | -9.324% | 0.4149% | -8.059% | -8.398% | 4.854%
CN1CC2(CCN(C(=O)Cn3ncc4ccccc4c3=O)CC2)OC1=O | -2.12% | 4.95% | 2.386% | 4.38% | 19.57%
O=C(O)C(F)(F)F.[H][C@@]12CN(C(=O)c3ccco3)C[C@]1([H])C(=O)N(Cc1csc(C)n1)C2 | - | - | - | -13.19% | -
COc1ccc(NC(=O)N2CCCC2c2ccco2)cc1OC (stereo not shown) | -25.25% | 5.435% | 4.105% | -10.03% | 12.62%
Cc1ccc(NC(=O)[C@H]2C[C@H](C(=O)O)CN(CC3CC3)C2)cn1 | -8.653% | 3.483% | 20.65% | 12.1% | 20.98%

For reference, 4 entries once more:

compound,Pks13 thioesterase,TcHisRS,ClpP1P2,Leishmania in macrophages,LiHisRS
CC(C)(C)C(=O)NCc1nccn1CCc1ccccc1,-24.91%,3.509%,7.406%,3.925%,10.71%
Cc1cncc(C(=O)N2CCOc3nc(C)ccc32)c1,0.6184%,2.469%,0.2825%,21.51%,12.9%
COCCN1CC(C(=O)NCc2ccc(C)s2)CC1=O (stereo not shown),-10.07%,4.762%,1.291%,-3.615%,8.219%
[H][C@@]12C[C@H](c3nnc(C)o3)O[C@@]1([H])CCN(C(=O)Cc1ccc(F)cc1)C2,-,-,-,36.99%,-